## Drug screen on melanoma cell lines: apoptosis marker

Source: doi:10.1371/journal.pone.0140310, primary screening data, rounded.

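Human melanoma cell lines in 1,536-well plates were treated with a pair of drugs for 72 h, then fixed, stained and imaged. Values are the share of nuclei positive for cleaved PARP as a percentage of the same share in the DMSO control: 100 is the control level, higher means more apoptosis. Every drug was used at one fixed concentration, the higher of two screened. No replicate spread is given; individual values may be noisy. The marker varies much from line to line, for technical or biological reasons.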 This is part of the screen, not chosen by result. An entry leaves out what has no value listed here. A dash means that no value is listed here.

Drugs:
ruxolitinib (5000 nM): N#CC[C@H](C1CCCC1)n1cc(-c2ncnc3[nH]ccc23)cn1
pioglitazone (10000 nM): CCc1ccc(CCOc2ccc(CC3SC(=O)NC3=O)cc2)nc1 (stereo unspecified)
lenalidomide (5000 nM): Nc1cccc2c1CN(C1CCC(=O)NC1=O)C2=O (stereo unspecified)
SU6656 (2000 nM): CN(C)S(=O)(=O)c1ccc2c(c1)/C(=C/c1cc3c([nH]1)CCCC3)C(=O)N2
GW2580 (5000 nM): COc1ccc(COc2ccc(Cc3cnc(N)nc3N)cc2OC)cc1

| Cell line | pioglitazone and SU6656 | SU6656 and lenalidomide | lenalidomide and GW2580 | SU6656 and ruxolitinib | GW2580 and pioglitazone | GW2580 and ruxolitinib | GW2580 and SU6656 |
|---|---|---|---|---|---|---|---|
| IPC-298 | 64.0 | 215 | 63.1 | 93.2 | 71.1 | 57.0 | 129 |
| SK-MEL-2 | 83.0 | 101 | 201 | 62.9 | 32.0 | 75.4 | 138 |
| WM1716 | 29.6 | 80.0 | 122 | 201 | 47.5 | 61.2 | 27.1 |
| COLO 792 | 234 | 139 | 81.0 | 176 | 412 | 84.6 | 222 |
| WM1745 | 105 | 101 | 129 | 116 | 124 | - | 147 |
| UACC-257 | 37.3 | 83.6 | 46.6 | 129 | 74.8 | 73.4 | 67.9 |
| G-361 | 99.8 | 154 | 56.1 | 441 | 82.4 | 180 | 147 |
| A375 | 39.9 | - | 76.5 | - | 29.4 | 31.0 | 87.6 |
| COLO 829 | 84.1 | 186 | 77.1 | 63.8 | 84.0 | 69.7 | 38.6 |
| RVH-421 | 60.4 | 39.5 | 81.0 | 79.0 | 92.0 | 69.2 | 42.6 |
| WM3526 | 96.2 | 166 | 63.5 | 240 | 90.8 | 58.4 | 94.8 |
| SK-MEL-30 | 71.8 | 130 | 175 | 44.0 | 57.5 | 97.2 | 189 |
| COLO 800 | 314 | 222 | 108 | 171 | 97.8 | 43.3 | 49.0 |
| IST-MEL1 | 87.3 | 66.6 | 58.7 | 265 | 176 | 216 | 278 |
| MeWo | 43.7 | 174 | 115 | 165 | 65.3 | 122 | 91.8 |
| MZ2-MEL | 117 | 374 | 44.7 | 832 | 18.8 | 192 | 96.2 |
| WM115 | 1010 | 455 | 69.8 | 315 | 46.4 | 30.0 | 199 |
| A2058 | 162 | 89.9 | 126 | 119 | 29.3 | 131 | 311 |
| LOX IMVI | 51.1 | 184 | 170 | 809 | 63.5 | 72.5 | 62.1 |
| RPMI-7951 | 31.5 | 103 | 240 | 171 | 70.0 | 115 | 384 |
| WM451Lu | 47.7 | 80.1 | 46.0 | 301 | 40.2 | 177 | 40.3 |
| C32 | 86.7 | 86.5 | 104 | 208 | 77.1 | 146 | 95.9 |
| A101D | 105 | 120 | 61.4 | 113 | 54.2 | 28.3 | 121 |
| SK-MEL-5 | 216 | 51.7 | 189 | 114 | 151 | 52.3 | 114 |
| UACC-62 | 88.2 | 93.6 | 82.3 | 117 | 99.8 | 75.5 | 79.3 |
| MEL-HO | 46.9 | 66.9 | 89.6 | 47.7 | 44.0 | 118 | 74.5 |
| 501mel | 67.7 | - | 224 | - | 168 | 80.9 | 137 |
| WM3619 | 126 | 101 | 119 | 89.4 | 127 | 84.1 | 117 |
| SK-MEL-28 | 132 | 133 | 178 | 170 | 251 | 69.8 | 128 |
| LB2518-MEL | 75.4 | 63.7 | 144 | 62.2 | 71.7 | 138 | 87.5 |

4 of the entries, repeated:

* SK-MEL-5 | pioglitazone and SU6656: 216; SU6656 and lenalidomide: 51.7; lenalidomide and GW2580: 189; SU6656 and ruxolitinib: 114; GW2580 and pioglitazone: 151; GW2580 and ruxolitinib: 52.3; GW2580 and SU6656: 114
* COLO 829 | pioglitazone and SU6656: 84.1; SU6656 and lenalidomide: 186; lenalidomide and GW2580: 77.1; SU6656 and ruxolitinib: 63.8; GW2580 and pioglitazone: 84.0; GW2580 and ruxolitinib: 69.7; GW2580 and SU6656: 38.6
* COLO 792 | pioglitazone and SU6656: 234; SU6656 and lenalidomide: 139; lenalidomide and GW2580: 81.0; SU6656 and ruxolitinib: 176; GW2580 and pioglitazone: 412; GW2580 and ruxolitinib: 84.6; GW2580 and SU6656: 222
* IPC-298 | pioglitazone and SU6656: 64.0; SU6656 and lenalidomide: 215; lenalidomide and GW2580: 63.1; SU6656 and ruxolitinib: 93.2; GW2580 and pioglitazone: 71.1; GW2580 and ruxolitinib: 57.0; GW2580 and SU6656: 129